Reference: the supplement of paper PMC10849652
The list shows a part of the results.

By UniProt entry, the sequences of proteins in these tests, tags left out. Where a name states a change or a piece, a line headed by the entry shows the natural chain unless it says otherwise.
UniProt O95630, whole entry, looked up: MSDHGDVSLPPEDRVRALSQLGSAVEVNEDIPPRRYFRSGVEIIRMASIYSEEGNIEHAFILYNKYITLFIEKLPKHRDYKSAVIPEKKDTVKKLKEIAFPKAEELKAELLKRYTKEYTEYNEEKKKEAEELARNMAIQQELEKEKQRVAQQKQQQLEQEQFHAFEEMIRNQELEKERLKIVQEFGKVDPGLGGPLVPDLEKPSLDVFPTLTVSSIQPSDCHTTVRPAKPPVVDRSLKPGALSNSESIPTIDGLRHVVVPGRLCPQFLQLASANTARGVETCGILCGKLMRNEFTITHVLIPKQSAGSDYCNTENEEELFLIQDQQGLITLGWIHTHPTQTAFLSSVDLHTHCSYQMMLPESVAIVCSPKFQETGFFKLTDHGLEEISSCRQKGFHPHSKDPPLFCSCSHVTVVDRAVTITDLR
UniProt P22528: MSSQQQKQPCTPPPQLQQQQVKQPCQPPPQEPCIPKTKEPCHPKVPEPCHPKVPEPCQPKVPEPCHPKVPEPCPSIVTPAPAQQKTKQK
UniProt P16150: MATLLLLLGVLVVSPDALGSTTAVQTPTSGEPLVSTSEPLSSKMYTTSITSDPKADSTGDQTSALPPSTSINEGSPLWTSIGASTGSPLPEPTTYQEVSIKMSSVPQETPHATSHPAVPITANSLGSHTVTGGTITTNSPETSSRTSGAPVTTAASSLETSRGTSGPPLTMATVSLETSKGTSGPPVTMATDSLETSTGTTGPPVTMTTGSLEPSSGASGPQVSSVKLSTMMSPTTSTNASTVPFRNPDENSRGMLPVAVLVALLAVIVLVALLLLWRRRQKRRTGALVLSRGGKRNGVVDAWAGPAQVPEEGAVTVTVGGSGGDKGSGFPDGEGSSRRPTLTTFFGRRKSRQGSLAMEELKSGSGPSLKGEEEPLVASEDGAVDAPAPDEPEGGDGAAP
UniProt Q13243: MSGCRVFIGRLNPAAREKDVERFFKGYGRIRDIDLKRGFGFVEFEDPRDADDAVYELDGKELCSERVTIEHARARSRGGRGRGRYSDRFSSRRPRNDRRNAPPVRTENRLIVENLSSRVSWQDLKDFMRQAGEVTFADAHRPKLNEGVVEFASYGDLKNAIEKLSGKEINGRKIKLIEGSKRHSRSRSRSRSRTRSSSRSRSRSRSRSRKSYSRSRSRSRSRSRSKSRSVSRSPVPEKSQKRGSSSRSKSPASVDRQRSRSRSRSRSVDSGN
UniProt O95793: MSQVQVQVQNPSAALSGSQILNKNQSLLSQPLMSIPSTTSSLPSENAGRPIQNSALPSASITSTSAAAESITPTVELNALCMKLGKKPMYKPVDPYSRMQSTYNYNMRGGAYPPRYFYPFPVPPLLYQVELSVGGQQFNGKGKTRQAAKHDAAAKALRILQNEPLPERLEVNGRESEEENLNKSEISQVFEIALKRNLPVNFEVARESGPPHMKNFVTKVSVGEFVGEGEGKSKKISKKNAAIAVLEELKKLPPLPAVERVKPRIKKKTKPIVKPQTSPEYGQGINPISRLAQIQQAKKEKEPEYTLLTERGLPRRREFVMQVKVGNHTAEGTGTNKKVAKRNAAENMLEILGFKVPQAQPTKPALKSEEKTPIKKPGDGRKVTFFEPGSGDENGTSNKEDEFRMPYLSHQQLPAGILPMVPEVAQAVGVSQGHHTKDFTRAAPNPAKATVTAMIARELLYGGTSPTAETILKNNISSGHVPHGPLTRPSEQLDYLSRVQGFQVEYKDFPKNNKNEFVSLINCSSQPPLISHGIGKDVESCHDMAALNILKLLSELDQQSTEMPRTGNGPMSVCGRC
UniProt Q8WW59: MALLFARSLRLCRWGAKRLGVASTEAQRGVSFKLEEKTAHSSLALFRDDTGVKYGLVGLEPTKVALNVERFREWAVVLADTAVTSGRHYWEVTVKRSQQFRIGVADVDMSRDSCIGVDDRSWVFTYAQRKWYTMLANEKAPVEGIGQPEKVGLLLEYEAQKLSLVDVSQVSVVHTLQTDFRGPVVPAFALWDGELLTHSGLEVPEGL
UniProt Q92783: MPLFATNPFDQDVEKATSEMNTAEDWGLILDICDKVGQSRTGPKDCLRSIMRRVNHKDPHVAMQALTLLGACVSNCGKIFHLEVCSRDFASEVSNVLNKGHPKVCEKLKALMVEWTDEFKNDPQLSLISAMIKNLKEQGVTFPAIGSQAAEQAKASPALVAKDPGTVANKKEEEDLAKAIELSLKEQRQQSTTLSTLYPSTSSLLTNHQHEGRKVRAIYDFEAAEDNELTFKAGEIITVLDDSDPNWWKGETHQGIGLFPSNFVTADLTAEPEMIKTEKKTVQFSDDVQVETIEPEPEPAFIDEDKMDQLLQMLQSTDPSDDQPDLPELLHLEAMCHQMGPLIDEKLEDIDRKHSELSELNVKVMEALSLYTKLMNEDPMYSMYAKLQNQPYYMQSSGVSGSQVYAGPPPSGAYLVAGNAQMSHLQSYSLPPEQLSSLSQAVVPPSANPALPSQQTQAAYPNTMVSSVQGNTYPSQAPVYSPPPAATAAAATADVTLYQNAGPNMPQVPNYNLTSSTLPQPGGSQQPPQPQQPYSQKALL
UniProt Q5W111: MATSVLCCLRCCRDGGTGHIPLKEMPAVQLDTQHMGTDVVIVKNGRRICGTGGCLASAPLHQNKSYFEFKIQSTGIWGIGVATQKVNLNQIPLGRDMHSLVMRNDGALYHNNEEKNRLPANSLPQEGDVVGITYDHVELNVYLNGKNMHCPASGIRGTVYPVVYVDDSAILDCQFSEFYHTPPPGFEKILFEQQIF
UniProt Q9Y6E0: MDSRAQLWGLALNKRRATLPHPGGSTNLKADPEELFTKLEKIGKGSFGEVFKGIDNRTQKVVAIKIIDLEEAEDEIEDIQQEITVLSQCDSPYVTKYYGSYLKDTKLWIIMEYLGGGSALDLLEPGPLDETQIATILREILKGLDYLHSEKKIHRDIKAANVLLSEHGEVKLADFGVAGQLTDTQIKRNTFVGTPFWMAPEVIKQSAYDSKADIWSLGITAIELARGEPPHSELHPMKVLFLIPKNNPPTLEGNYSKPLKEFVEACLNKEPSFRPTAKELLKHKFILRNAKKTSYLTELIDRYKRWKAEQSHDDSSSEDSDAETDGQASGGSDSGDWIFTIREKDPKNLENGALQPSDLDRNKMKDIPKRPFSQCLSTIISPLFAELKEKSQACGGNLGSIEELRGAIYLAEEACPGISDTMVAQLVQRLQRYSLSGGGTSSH
UniProt Q8IYB3: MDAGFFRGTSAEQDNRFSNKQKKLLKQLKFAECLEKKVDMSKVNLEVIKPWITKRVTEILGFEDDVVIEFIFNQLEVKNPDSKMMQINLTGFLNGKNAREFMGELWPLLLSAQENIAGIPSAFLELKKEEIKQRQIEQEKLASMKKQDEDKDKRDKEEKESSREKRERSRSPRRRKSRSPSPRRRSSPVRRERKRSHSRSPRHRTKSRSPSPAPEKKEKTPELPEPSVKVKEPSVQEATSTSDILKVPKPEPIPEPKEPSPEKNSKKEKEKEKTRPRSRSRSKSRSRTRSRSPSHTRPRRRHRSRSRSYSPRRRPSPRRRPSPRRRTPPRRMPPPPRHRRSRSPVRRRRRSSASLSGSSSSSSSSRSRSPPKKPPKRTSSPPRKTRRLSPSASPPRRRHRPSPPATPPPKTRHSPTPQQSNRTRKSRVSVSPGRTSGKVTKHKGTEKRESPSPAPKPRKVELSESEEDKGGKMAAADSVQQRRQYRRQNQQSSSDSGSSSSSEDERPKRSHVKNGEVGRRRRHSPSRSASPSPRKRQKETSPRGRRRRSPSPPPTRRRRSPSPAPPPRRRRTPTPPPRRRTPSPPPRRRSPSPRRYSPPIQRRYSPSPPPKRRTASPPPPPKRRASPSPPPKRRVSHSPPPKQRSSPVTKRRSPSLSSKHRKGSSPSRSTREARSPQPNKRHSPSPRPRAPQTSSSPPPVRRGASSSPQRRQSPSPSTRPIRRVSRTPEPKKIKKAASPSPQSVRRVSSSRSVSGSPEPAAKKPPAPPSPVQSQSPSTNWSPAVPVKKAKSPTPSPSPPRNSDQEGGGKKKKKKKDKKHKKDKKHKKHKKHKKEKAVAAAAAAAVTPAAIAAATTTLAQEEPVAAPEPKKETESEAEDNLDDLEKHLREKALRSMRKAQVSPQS
UniProt Q69YQ0: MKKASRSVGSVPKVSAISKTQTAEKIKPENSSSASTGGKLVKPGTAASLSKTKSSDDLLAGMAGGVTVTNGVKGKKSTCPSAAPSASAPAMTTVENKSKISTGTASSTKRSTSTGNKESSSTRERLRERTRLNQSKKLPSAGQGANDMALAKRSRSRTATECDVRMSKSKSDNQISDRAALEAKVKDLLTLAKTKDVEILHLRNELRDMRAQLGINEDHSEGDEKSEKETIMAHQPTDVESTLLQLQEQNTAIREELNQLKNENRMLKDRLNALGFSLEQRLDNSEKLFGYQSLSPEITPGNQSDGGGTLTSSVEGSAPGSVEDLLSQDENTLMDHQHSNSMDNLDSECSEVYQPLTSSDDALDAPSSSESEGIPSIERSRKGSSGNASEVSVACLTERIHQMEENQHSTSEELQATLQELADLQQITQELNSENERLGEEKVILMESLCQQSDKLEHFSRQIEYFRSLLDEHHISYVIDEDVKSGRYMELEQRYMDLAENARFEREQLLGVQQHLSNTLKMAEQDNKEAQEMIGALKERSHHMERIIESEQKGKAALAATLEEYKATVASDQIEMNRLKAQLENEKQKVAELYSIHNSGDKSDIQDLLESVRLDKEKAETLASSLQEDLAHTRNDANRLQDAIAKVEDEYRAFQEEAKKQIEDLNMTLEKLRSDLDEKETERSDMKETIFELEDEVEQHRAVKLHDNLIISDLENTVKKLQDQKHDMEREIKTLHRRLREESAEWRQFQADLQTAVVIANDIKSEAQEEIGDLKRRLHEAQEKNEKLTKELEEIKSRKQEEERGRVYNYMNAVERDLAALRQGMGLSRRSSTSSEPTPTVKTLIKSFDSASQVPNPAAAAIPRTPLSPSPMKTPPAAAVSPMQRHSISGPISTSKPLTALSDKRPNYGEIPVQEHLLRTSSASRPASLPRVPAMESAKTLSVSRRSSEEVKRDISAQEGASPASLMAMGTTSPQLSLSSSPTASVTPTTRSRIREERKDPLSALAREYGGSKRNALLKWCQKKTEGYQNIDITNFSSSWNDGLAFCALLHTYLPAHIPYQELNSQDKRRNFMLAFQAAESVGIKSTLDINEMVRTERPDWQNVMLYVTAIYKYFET
UniProt P43307: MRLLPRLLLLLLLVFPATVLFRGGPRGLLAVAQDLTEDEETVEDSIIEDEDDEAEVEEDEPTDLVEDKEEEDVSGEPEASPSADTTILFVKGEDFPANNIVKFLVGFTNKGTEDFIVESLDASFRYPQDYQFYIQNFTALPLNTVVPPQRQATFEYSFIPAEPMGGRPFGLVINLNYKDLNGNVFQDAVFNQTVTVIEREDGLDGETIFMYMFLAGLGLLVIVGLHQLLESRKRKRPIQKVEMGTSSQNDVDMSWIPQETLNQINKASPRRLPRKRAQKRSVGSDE
UniProt P19623: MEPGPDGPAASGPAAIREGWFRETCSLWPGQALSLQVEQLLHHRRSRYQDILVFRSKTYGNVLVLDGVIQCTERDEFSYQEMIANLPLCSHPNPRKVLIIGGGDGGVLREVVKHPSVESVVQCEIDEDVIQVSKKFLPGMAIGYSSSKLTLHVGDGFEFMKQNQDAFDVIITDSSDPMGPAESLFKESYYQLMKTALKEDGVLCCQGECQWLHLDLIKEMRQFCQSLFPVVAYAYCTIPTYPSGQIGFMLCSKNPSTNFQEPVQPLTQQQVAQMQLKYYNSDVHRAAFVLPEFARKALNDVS
UniProt Q8N9Q2: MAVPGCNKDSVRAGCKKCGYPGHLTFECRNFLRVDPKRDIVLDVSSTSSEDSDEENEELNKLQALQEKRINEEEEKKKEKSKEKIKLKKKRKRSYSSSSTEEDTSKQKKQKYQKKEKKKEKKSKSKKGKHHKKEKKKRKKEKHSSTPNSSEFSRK
UniProt Q96SB4, whole entry, looked up: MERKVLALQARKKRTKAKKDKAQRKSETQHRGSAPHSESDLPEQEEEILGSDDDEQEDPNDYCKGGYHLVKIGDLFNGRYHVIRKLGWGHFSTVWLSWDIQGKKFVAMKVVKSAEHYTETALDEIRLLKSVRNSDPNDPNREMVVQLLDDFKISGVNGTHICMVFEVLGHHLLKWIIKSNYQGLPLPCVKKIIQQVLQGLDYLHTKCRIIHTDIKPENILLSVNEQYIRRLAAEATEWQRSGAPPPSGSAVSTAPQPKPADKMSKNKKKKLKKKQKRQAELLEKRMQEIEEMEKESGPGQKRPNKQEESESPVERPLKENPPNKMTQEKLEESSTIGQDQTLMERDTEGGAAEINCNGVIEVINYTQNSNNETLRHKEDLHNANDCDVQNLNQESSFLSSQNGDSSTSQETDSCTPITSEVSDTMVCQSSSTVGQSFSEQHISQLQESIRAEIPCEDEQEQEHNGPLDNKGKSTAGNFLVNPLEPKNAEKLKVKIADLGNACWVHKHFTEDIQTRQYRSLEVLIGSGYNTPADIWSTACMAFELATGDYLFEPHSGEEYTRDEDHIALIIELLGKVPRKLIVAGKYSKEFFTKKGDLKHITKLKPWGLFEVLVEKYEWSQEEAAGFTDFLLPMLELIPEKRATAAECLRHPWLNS

Assays:
Assay in all cases: log2 fold change, soluble protein after heating vs DMSO (PISA); higher = thermal stabilisation; K562 cells, 10 uM, 30 min; active = over 0.2 and 3.5 SD of the protein, either way, in both replicates (recomputed)
[1] = compound: CC[C@@H]1C(=O)N(C)c2cnc(Nc3ccc(C(=O)NC4CCN(C)CC4)cc3OC)nc2N1C1CCCC1
In short: (§1)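 K562 cells at 2×10^6 cells/mL were treated with 10 μM compound for 30 min. Aliquots were heated for 3 min across 48°C-58°C, pooled, and extracted in PBS with 0.5% NP-40 at 4°C; soluble protein was the supernatant after 21,000xg for 90 min. Soluble protein was quantified by TMTpro 16plex LC-MS/MS with channel sums equalised, and reported as log2 fold change in thermal stability against DMSO controls, with values from duplicates.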

volasertib = compound: CC[C@@H]1C(=O)N(C)c2cnc(Nc3ccc(C(=O)N[C@H]4CC[C@H](N5CCN(CC6CC6)CC5)CC4)cc3OC)nc2N1C(C)C [volasertib]
In short: as §1

[2] = compound: CC[C@H](C)N1C=C(C2=C(C=C(C=C21)C3=CN=C(C=C3)N4CCNCC4)C(=O)NCC5=C(C=C(NC5=O)C)C)C
In short: as §1

epoxomicin = compound: CC[C@H](C)[C@@H](C(=O)N[C@@H]([C@@H](C)O)C(=O)N[C@@H](CC(C)C)C(=O)[C@]1(CO1)C)NC(=O)[C@H]([C@@H](C)CC)N(C)C(=O)C [epoxomicin]
In short: as §1

[3] = compound: CCn1c(C(=O)N(C2CC2)C2CC2)cc2c3c(ncn3C)c(Nc3cc(C)n(C)n3)nc21
In short: as §1

[4] = compound: CCn1cc(-c2ccnc3[nH]c(-c4cccc(CN(C)C)c4)cc23)c(-c2ccc(NC(=O)N(C)C)cc2)n1
In short: as §1

[5] = compound: CN(C)CC(=O)Nc1ccc2[nH]c(=O)c3ccccc3c2c1
In short: as §1

rosiglitazone = compound: CN(CCOC1=CC=C(C=C1)C[C@H]2C(=O)NC(=O)S2)C3=CC=CC=N3 (racemic) [rosiglitazone]
In short: as §1

[6] = compound: CN1C2=C(C3=C1C(=O)N(N=C3)CC4=CC(=CC=C4)N)SC(=C2)S(=O)C
In short: as §1

[7] = compound: CN1CCC(CNc2ccc3ncc(-c4cccc(OC(F)(F)F)c4)n3n2)CC1
In short: as §1

Measured: log2 fold change

SSNA1 (UniProt O43805)
inactive: [1] 0.02 | volasertib 0.009 | [2] 0 | epoxomicin 0.018 | [3] 0.028 | [4] -0.014 | [5] -0.059 | rosiglitazone 0.009 | [6] -0.021 | [7] 0.024

STAMBP (UniProt O95630)
inactive: [1] -0.028 | volasertib -0.21 | [2] 0.069 | epoxomicin -0.04 | [3] -0.056 | [4] -0.031 | [5] 0.027 | rosiglitazone 0.056 | [6] 0.048 | [7] -0.039

STK11 (UniProt Q15831)
inactive: [1] 0.028 | volasertib 0.057 | [2] 0.027 | epoxomicin 0.003 | [3] 0.031 | [4] -0.088 | [5] -0.028 | rosiglitazone 0.032 | [6] -0.019 | [7] -0.04

SPATA5 (UniProt Q8NB90)
inactive: [1] 0.042 | volasertib 0.045 | [2] -0.031 | epoxomicin -0.093 | [3] 0.012 | [4] 0.02 | [5] -0.01 | rosiglitazone -0.028 | [6] 0.004 | [7] 0.046

SPRR1B (UniProt P22528)
inactive: [1] -0.124

SPN (UniProt P16150)
inactive: [1] 0.077 | volasertib 0.075 | [2] -0.089 | epoxomicin -0.005 | [3] -0.01 | [4] -0.055 | [5] -0.036 | rosiglitazone -0.02 | [6] -0.064 | [7] 0.19

SRSF5 (UniProt Q13243)
inactive: [1] 0.144 | volasertib 0.317 | [2] 0.034 | epoxomicin -0.28 | [3] 0.044 | [4] 0.141 | [5] -0.063 | rosiglitazone -0.12 | [6] 0.209 | [7] 0.19

SSBP1 (UniProt Q04837)
inactive: [1] 0.021 | volasertib 0.164 | [2] -0.064 | epoxomicin -0.013 | [3] 0.028 | [4] 0.029 | [5] -0.039 | rosiglitazone -0.024 | [6] 0.04 | [7] 0.025

STAT1 (UniProt P42224)
inactive: [1] 0.029 | volasertib -0.085 | [2] 0.086 | epoxomicin -0.028 | [3] -0.041 | [4] -0.039 | [5] -0.03 | rosiglitazone 0.049 | [6] 0.262 | [7] -0.041

SRP19 (UniProt P09132)
inactive: [1] -0.029 | volasertib -0.249 | [2] 0.04 | epoxomicin 0.001 | [3] -0.199 | [4] -0.031 | [5] 0.043 | rosiglitazone 0.001 | [6] 0.015 | [7] 0.058

STAU1 (UniProt O95793)
inactive: [1] 0.215 | volasertib 0.46 | [2] 0.047 | epoxomicin -0.406 | [3] 0.043 | [4] 0.23 | [5] -0.199 | rosiglitazone -0.12 | [6] 0.387 | [7] 0.261

SPC24 (UniProt Q8NBT2)
inactive: [1] -0.163 | volasertib -0.144 | [2] 0.014 | epoxomicin 0.017 | [3] 0.008 | [4] 0.01 | [5] 0.049 | rosiglitazone 0.048 | [6] -0.048 | [7] 0.033

SPRYD4 (UniProt Q8WW59)
inactive: [1] 0.041 | volasertib 0.093 | [2] -0.017 | epoxomicin -0.056 | [3] 0.012 | [4] -0.105 | [5] -0.02 | rosiglitazone 0.033 | [6] -0.103 | [7] 0.023

SRGAP2 (UniProt O75044)
inactive: [1] -0.031 | volasertib -0.015 | [2] 0.03 | epoxomicin -0.016 | [3] -0.014 | [4] -0.007 | [5] -0.016 | rosiglitazone 0.035 | [6] -0.015 | [7] -0.035

STAM (UniProt Q92783)
inactive: [1] -0.048 | volasertib -0.108 | [2] 0.026 | epoxomicin -0.068 | [3] 0.005 | [4] -0.004 | [5] -0.046 | rosiglitazone 0.044 | [6] 0.061 | [7] -0.025

SPRYD7 (UniProt Q5W111)
inactive: [1] -0.031 | volasertib -0.246 | [2] 0.05 | epoxomicin 0.011 | [3] -0.026 | [4] 0.082 | [5] -0.036 | rosiglitazone -0.02 | [6] -0.082 | [7] 0.058

STK24 (UniProt Q9Y6E0)
inactive: [1] 0 | volasertib -0.09 | [2] 0.032 | epoxomicin 0.017 | [3] 0.035 | [4] 0.012 | [5] 0.022 | rosiglitazone 0.045 | [6] -0.044 | [7] -0.189

SPTAN1 isoform 2 (UniProt Q13813)
inactive: [1] 0.191 | volasertib 0.046 | [2] -0.014 | epoxomicin -0.045 | [3] -0.018 | [4] 0.007 | [5] -0.026 | rosiglitazone -0.06 | [6] 0.053 | [7] 0.095

2 neighbouring records already listed, for reference:
SPRYD7 (UniProt Q5W111)
inactive: [1] -0.031 | volasertib -0.246 | [2] 0.05 | epoxomicin 0.011 | [3] -0.026 | [4] 0.082 | [5] -0.036 | rosiglitazone -0.02 | [6] -0.082 | [7] 0.058

STK24 (UniProt Q9Y6E0)
inactive: [1] 0 | volasertib -0.09 | [2] 0.032 | epoxomicin 0.017 | [3] 0.035 | [4] 0.012 | [5] 0.022 | rosiglitazone 0.045 | [6] -0.044 | [7] -0.189

Continued.

SPTB isoform 2 (UniProt P11277)
inactive: [1] -0.07 | volasertib -0.323 | [2] 0.159 | epoxomicin -0.175 | [3] -0.06 | [4] 0.06 | [5] 0.143 | rosiglitazone -0.077 | [6] 0.309 | [7] -0.242

SRRM1 (UniProt Q8IYB3)
inactive: [1] 0.114 | volasertib 0.212 | [2] -0.004 | epoxomicin -0.107 | [3] 0.058 | [4] 0.221 | [5] -0.055 | rosiglitazone -0.001 | [6] 0.13 | [7] 0.14

STIP1 isoform 2 (UniProt P31948)
inactive: [1] -0.038 | volasertib 0.008 | [2] 0.015 | epoxomicin 0.004 | [3] 0.013 | [4] -0.015 | [5] -0.003 | rosiglitazone 0.004 | [6] -0.067 | [7] 0.023

SPIN1 (UniProt Q9Y657)
inactive: [1] 0.085 | volasertib 0.024 | [2] 0.112 | epoxomicin 0.069 | [3] 0.005 | [4] 0.022 | [5] -0.005 | rosiglitazone 0.021 | [6] -0.01 | [7] 0.048

SPECC1L (UniProt Q69YQ0)
inactive: [1] -0.006 | volasertib 0.001 | [2] -0.033 | epoxomicin 0.023 | [3] 0.01 | [4] 0.01 | [5] 0.008 | rosiglitazone 0.002 | [6] -0.012 | [7] -0.069

SPG7 (UniProt Q9UQ90)
inactive: [1] 0.027 | volasertib -0.017 | [2] -0.018 | epoxomicin 0.009 | [3] -0.015 | [4] 0.029 | [5] 0.007 | rosiglitazone -0.011 | [6] -0.011 | [7] -0.085

SSR1 (UniProt P43307)
inactive: [1] 0.034 | volasertib 0.029 | [2] -0.032 | epoxomicin -0.012 | [3] 0.051 | [4] -0.006 | [5] 0.007 | rosiglitazone 0.003 | [6] 0.001 | [7] 0.07

SRRT (UniProt Q9BXP5)
inactive: [1] -0.138 | volasertib -0.375 | [2] 0.182 | epoxomicin 0.16 | [3] -0.107 | [4] -0.105 | [5] 0.17 | rosiglitazone 0.143 | [6] -0.061 | [7] -0.221

SRM (UniProt P19623)
inactive: [1] 0.039 | volasertib 0.036 | [2] 0.01 | epoxomicin 0.04 | [3] 0.026 | [4] -0.061 | [5] 0.017 | rosiglitazone 0.029 | [6] -0.051 | [7] -0.051

SRP9 (UniProt P49458)
inactive: [1] 0.208 | volasertib 0.273 | [2] -0.017 | epoxomicin -0.296 | [3] 0.021 | [4] 0.223 | [5] -0.122 | rosiglitazone -0.141 | [6] 0.288 | [7] 0.28

SPC25 (UniProt Q9HBM1)
inactive: [1] -0.123 | volasertib -0.064 | [2] 0.071 | epoxomicin 0.126 | [3] 0.155 | [4] 0.018 | [5] 0.011 | rosiglitazone 0.031 | [6] -0.008 | [7] -0.046

SREK1IP1 (UniProt Q8N9Q2)
inactive: [1] 0.053 | volasertib 0.123 | [2] -0.002 | epoxomicin -0.106 | [3] 0.136 | [4] 0.056 | [5] -0.081 | rosiglitazone -0.021 | [6] 0 | [7] 0.026

SRPK1 (UniProt Q96SB4)
inactive: [1] 0.264 | volasertib 0.422 | [2] 0.011 | epoxomicin -0.303 | [3] 0.01 | [4] 0.235 | [5] -0.206 | rosiglitazone -0.129 | [6] 0.282 | [7] 0.262
